PubChem BioAssay AID652272 – Drosophila RNAi Screening Center, 2013
Assay: 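Finding fly genes that regulate Hedgehog signal transduction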 (primary screen). Cell system: Drosophila clone 8 (Cl8) cells. Reagent: long dsRNA against Drosophila genes. Read-out: 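Plate reader light from a firefly reporter under a ptc promoter fragment that responds to Hedgehog, with Renilla light as transfection reference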. Direction: firefly Hh reporter signal: higher = more ptc reporter light; Renilla reference signal: higher = more Renilla control light. Active means: 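Hit when the z-score averaged over two replicates is under -2 or over +3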. Meaning of the calls: active = hit: reporter lowered or raised; inactive = not a hit.
The screen tested about 21,000 reagents; this is a random part of those that have a named target and a result. Of all reagents, 503 (2.4%) are marked active. 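Raw plate light values, not normalised; calls rest on replicate z-scores that were not deposited; hits include reporter decreases as well as increases.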 Entries without a mark were called inactive. Reagents against one gene are numbered here. The record does not give: the amount of reagent, the time to read-out.

Target gene | dsRNA no. | firefly Hh reporter signal, replicate 1 | firefly Hh reporter signal, replicate 2 | firefly Hh reporter signal, replicate 3 | Renilla reference signal, replicate 1 | Renilla reference signal, replicate 2
CG11300 | 1 | 91149 | 56896 | – | 2280 | 5744
GlcAT-P (Glucuronyltransferase P) | 1 | 1.02e5 | 95769 | – | 4677 | 3984
GlcAT-P (Glucuronyltransferase P) | 2 | 71367 | 36976 | 49869 | 5555 | 3189
CG30389 | 1 | 68240 | 55962 | – | 2355 | 1702
CG30389 | 2 | 72357 | 62080 | – | 1530 | 5761
ced-6 | 1 | 1.85e5 | 75320 | – | 4728 | 5808
Nadk2 (NAD kinase 2, mitochondrial) | 1 | 90166 | 55187 | – | 3740 | 2016
lectin-33A | 1 | 1.58e5 | 59810 | – | 3940 | 5113
tpr (tracheal-prostasin) | 1 | 67307 | 55712 | – | 2701 | 2291
Dpck (Dephospho-CoA kinase) | 1 | 87094 | 84810 | – | 3370 | 2683
CG34282 | 1 | 6.06e5 | 1.46e5 | – | 29495 | 3427
l(2)k09913 (lethal (2) k09913) | 1 | 47697 | 40217 | – | 2144 | 1889
CG13313 | 1 | 36441 | 55605 | – | 409 | 4176

3 entries from above, sorted by “Renilla reference signal, replicate 1”, high to low:
Target gene | dsRNA no. | firefly Hh reporter signal, replicate 1 | firefly Hh reporter signal, replicate 2 | firefly Hh reporter signal, replicate 3 | Renilla reference signal, replicate 1 | Renilla reference signal, replicate 2
CG34282 | 1 | 6.06e5 | 1.46e5 | – | 29495 | 3427
l(2)k09913 (lethal (2) k09913) | 1 | 47697 | 40217 | – | 2144 | 1889
CG13313 | 1 | 36441 | 55605 | – | 409 | 4176

Further records:
Target gene | dsRNA no. | firefly Hh reporter signal, replicate 1 | firefly Hh reporter signal, replicate 2 | firefly Hh reporter signal, replicate 3 | Renilla reference signal, replicate 1 | Renilla reference signal, replicate 2
MICAL-like | 1 | 96300 | 63560 | – | 4115 | 2260
Ythdf (YTH N6-methyladenosine RNA binding protein) | 1 | 4.51e5 | 99707 | – | 22585 | 2829
Ythdf (YTH N6-methyladenosine RNA binding protein) | 2 | 5.24e5 | 1.17e5 | – | 26298 | 3732
JMJD4 (Jumonji domain containing 4) | 1 | 1.29e5 | 1.05e5 | – | 4571 | 4151
Cpr49Af (Cuticular protein 49Af) | 1 | 60361 | 56996 | – | 1676 | 4058
CG9630 | 1 | 81528 | 80973 | – | 3660 | 3238
cpb (capping protein beta) | 1 | 1.14e5 | 96480 | – | 3810 | 3974
CG7556 | 1 | 1.25e5 | 1.00e5 | – | 3081 | 1915
CG9143 | 1 | 82394 | 60016 | – | 4005 | 3219
CG33140 | 1 | 91521 | 68202 | – | 3384 | 2730
